Counter-ions that a name gives are not always drawn. Some of the results follow. Single values are uncertain, as repeats are few or missing.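 Primary human fetal astrocytes engulfed labelled rat cortical synaptosomes, measured as a red/green ratio corrected for calcein live-cell signal and scaled to the plate median. Toxicity meant calcein falling over 30%; decreased phagocytosis meant below 70% of median above 5 µM.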

Holding throughout (settings): 24 h
Assay [1] has as its system Human fetal astrocytes. The assay can be described thus: loss of total cells relative to no-compound high-control median (toxicity); higher = more toxic (fewer cells).
Assay [2] has as its system Human fetal astrocytes. The description is as above. The source holds these as a separate data set.
Assay [3] has as its system Human fetal astrocytes. The assay can be described thus: synaptosome phagocytosis (pHrodo/calcein intensity ratio) relative to plate median of data wells; higher = more phagocytosis.

For `O=C1C=CC2=C3c4cc(O)c(O)cc4CC3(O)COC2=C1` (stereo not given), the “loss of total cells” value is -1.1% with Human fetal astrocytes [1] (1.39 µM); 3.3% with Human fetal astrocytes [1] (2.78 µM); 16.8% with Human fetal astrocytes [1] (5.56 µM); 31% in the assay with Human fetal astrocytes [1] (11.11 µM); 23.3% in the assay with Human fetal astrocytes [1] (22.22 µM).

On to `COc1ccc([C@@H]2Sc3ccccc3N(CCN(C)C)C(=O)[C@@H]2OC(C)=O)cc1` [Diltiazem hydrochloride], for which the “loss of total cells” value in the assay with Human fetal astrocytes [2] (1.39 µM) is 9.6%; in the assay with Human fetal astrocytes [2] (2.78 µM) it was -9.4%; with Human fetal astrocytes [2] (5.56 µM) it was -7.4%; with Human fetal astrocytes [2] (11.11 µM) it was -9.4%. Also, the synaptosome phagocytosis in the assay with Human fetal astrocytes [3] (1.39 µM) was 81.6%; in the assay on Human fetal astrocytes [3] (2.78 µM) it was 93.9%; in the assay on Human fetal astrocytes [3] (5.56 µM), 84.8%; in the assay on Human fetal astrocytes [3] (11.11 µM), 100%.

Take `O=c1[nH]c2cc(Cl)ccc2c(O)c1-c1cccc(Oc2ccccc2)c1`: the “loss of total cells” value in the assay on Human fetal astrocytes [2] (1.39 µM) is -24.2%; in the assay on Human fetal astrocytes [2] (2.78 µM) it was 14%; with Human fetal astrocytes [2] (5.56 µM) it was 3.3%; in the assay with Human fetal astrocytes [2] (11.11 µM), 19%; in the assay on Human fetal astrocytes [2] (22.22 µM), 7.5%. For the same molecule, the synaptosome phagocytosis in the assay with Human fetal astrocytes [3] (1.39 µM) was 89.4%; in the assay with Human fetal astrocytes [3] (2.78 µM), 115%; with Human fetal astrocytes [3] (5.56 µM) it was 113%; in the assay with Human fetal astrocytes [3] (11.11 µM), 105%; with Human fetal astrocytes [3] (22.22 µM), 116%.

For `Cn1c(=O)c2[nH]c(C3CCCC3)nc2n(C)c1=O` [8-Cyclopentyl-1,3-dimethylxanthine], the “loss of total cells” value in the assay with Human fetal astrocytes [2] (22.22 µM) was -0.8%. For the same molecule, the synaptosome phagocytosis with Human fetal astrocytes [3] (22.22 µM) was 123%.

As to `O=C1OC2(c3ccc(O)cc3Oc3cc(O)ccc32)c2ccccc21`, the “loss of total cells” value in the assay on Human fetal astrocytes [1] (1.39 µM) was 3.3%; in the assay with Human fetal astrocytes [1] (2.78 µM), -10.7%; in the assay with Human fetal astrocytes [1] (5.56 µM), 21.3%; with Human fetal astrocytes [1] (11.11 µM), -28.9%; in the assay on Human fetal astrocytes [1] (22.22 µM), -26.6%.

Turning to `Oc1ccc2c(c1)OC[C@]1(O)Cc3cc(O)c(O)cc3[C@H]21`, the “loss of total cells” value in the assay on Human fetal astrocytes [1] (1.39 µM) was found to be 6.9%; with Human fetal astrocytes [1] (2.78 µM), 7.3%; in the assay on Human fetal astrocytes [1] (5.56 µM), 50.4%; in the assay on Human fetal astrocytes [1] (11.11 µM), 51.6%; with Human fetal astrocytes [1] (22.22 µM) it was 18.1%.

For `O=P(O)(O)C(Cl)(Cl)P(=O)(O)O` [Clodronic acid], the “loss of total cells” value in the assay on Human fetal astrocytes [2] (22.22 µM) is -8%. In addition, the synaptosome phagocytosis with Human fetal astrocytes [3] (22.22 µM) is 97.4%.

As to `COC(=O)Nc1nc2cc(C(=O)c3cccs3)ccc2[nH]1` [Nocodazole], the “loss of total cells” value in the assay with Human fetal astrocytes [2] (1.39 µM) is -21.3%; in the assay on Human fetal astrocytes [2] (2.78 µM), -5.9%; with Human fetal astrocytes [2] (5.56 µM) it was -22.1%; in the assay with Human fetal astrocytes [2] (11.11 µM), 1%; with Human fetal astrocytes [2] (22.22 µM), 0.9%. Besides, the synaptosome phagocytosis in the assay on Human fetal astrocytes [3] (1.39 µM) was 94.2%; in the assay with Human fetal astrocytes [3] (2.78 µM), 97.4%; in the assay with Human fetal astrocytes [3] (5.56 µM), 124%; in the assay with Human fetal astrocytes [3] (11.11 µM), 120%; with Human fetal astrocytes [3] (22.22 µM), 112%.

Regarding `Nc1nc2ccc(Cl)cc2c2nc(-c3ccco3)nn12`, the “loss of total cells” value in the assay with Human fetal astrocytes [2] (1.39 µM) was 1.3%; with Human fetal astrocytes [2] (2.78 µM), 11.1%; in the assay with Human fetal astrocytes [2] (5.56 µM) it was 10.7%; in the assay with Human fetal astrocytes [2] (11.11 µM), -4%. The synaptosome phagocytosis in the assay with Human fetal astrocytes [3] (1.39 µM) is 114%; in the assay on Human fetal astrocytes [3] (2.78 µM), 97.8%; with Human fetal astrocytes [3] (5.56 µM), 107%; with Human fetal astrocytes [3] (11.11 µM), 74.8%.

On to `CNC1(C)C2CCC(C2)C1(C)C` (stereo not given) [Mecamylamine hydrochloride], for which the “loss of total cells” value is -15.6% in the assay with Human fetal astrocytes [2] (1.39 µM); -15.8% in the assay on Human fetal astrocytes [2] (2.78 µM); 16.4% in the assay on Human fetal astrocytes [2] (5.56 µM); -1% in the assay on Human fetal astrocytes [2] (11.11 µM); -14% in the assay with Human fetal astrocytes [2] (22.22 µM). Moreover, the synaptosome phagocytosis was 112% in the assay with Human fetal astrocytes [3] (1.39 µM); 114% in the assay with Human fetal astrocytes [3] (2.78 µM); 87.2% in the assay with Human fetal astrocytes [3] (5.56 µM); 118% with Human fetal astrocytes [3] (11.11 µM); 104% in the assay with Human fetal astrocytes [3] (22.22 µM).

Consider `CC1(NC(=O)CBr)CCC(C(C)(C)NCC(O)COc2cccc3[nH]ccc23)CC1` (racemic) [(±)-Pindobind], for which the “loss of total cells” value in the assay on Human fetal astrocytes [2] (1.39 µM) was -4.7%; with Human fetal astrocytes [2] (2.78 µM), -20.1%; with Human fetal astrocytes [2] (5.56 µM), -6.7%; in the assay with Human fetal astrocytes [2] (11.11 µM) it was 3.4%; with Human fetal astrocytes [2] (22.22 µM) it was -26.3%. For the same molecule, the synaptosome phagocytosis with Human fetal astrocytes [3] (1.39 µM) is 91.9%; in the assay with Human fetal astrocytes [3] (2.78 µM) it was 83%; in the assay on Human fetal astrocytes [3] (5.56 µM), 91.5%; in the assay on Human fetal astrocytes [3] (11.11 µM), 98.9%; in the assay with Human fetal astrocytes [3] (22.22 µM) it was 68.8%.

Values taken from the supplement of paper PMC10689618.
